Laboratory results taken from PubChem BioAssay AID1671190 (National Center for Advancing Translational Sciences (NCATS), 2021).
“And” between values parts separate entries of the source, which are not always exact repeats. Equal values may be shown once. The campaign covered roughly 580,000 compounds. About 6,100 (1.1%) were called active. The shares of active, inactive and inconclusive entries below differ from those in the screen. Calls come from the whole dose curve; as a rule, active = well fitted inhibition curve with a large enough effect; inconclusive = small, poorly fitted or top-dose-only effect, or another doubt; inactive = no such curve, though single readings can be large or run the other way. A potency beside an inconclusive call is a rough fit, not a confirmed value.

Sequences of proteins named here, by UniProt entry; tags and fusion partners are left off. A change or cut given only in a name is not applied to a line headed by its entry.
UniProt P18054: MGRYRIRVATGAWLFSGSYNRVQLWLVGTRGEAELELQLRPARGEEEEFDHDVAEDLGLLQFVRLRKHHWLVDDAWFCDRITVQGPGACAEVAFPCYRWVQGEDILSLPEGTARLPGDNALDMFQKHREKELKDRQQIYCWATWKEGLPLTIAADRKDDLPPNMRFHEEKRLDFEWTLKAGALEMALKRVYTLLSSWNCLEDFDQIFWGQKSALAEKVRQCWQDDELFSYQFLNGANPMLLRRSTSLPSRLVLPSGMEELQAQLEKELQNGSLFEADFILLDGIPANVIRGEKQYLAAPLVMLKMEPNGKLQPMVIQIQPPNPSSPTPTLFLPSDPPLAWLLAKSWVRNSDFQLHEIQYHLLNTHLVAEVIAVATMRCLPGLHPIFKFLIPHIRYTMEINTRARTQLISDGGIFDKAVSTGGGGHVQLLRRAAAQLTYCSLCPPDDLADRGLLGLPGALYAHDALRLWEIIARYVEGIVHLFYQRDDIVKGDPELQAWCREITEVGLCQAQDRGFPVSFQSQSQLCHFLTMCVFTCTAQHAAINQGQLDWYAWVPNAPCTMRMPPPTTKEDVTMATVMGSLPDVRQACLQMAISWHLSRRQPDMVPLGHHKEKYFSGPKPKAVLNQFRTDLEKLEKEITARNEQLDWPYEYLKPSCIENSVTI

Molecular target: Polyunsaturated fatty acid lipoxygenase ALOX12 (Homo sapiens) (UniProt P18054)
Experiment: Primary qHTS assay for inhibitors of human arachidonate 12S-lipoxygenase (ALOX12): Round 2
Conditions: purified 12hLO, xylenol orange hydroperoxide absorbance; series mostly up to 108 µM
Summary of the method: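 Hydroperoxide product was detected by ferrous iron/xylenol orange as the 573 to 405 nm absorbance ratio. Arachidonic acid at 40 uM (final) was turned over for 30 min at room temperature by 150 nM human 12hLO, pH 7.0 Hepes buffer, after 15 min compound preincubation.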
Potency is the fitted concentration of half-maximal effect.

SMILES | Potency
CC(Sc1nc2ccc(F)cc2c(=O)[nH]1)C(=O)NC1CC1 (stereo not drawn) | inconclusive: 39.8 µM [inhibitor, partial curve, poor fit]
COc1ccc(CN(C)Cc2ccoc2)cc1OCC(O)CN1CCCCC1 (stereo not drawn) | inactive
Oc1ccc(Nc2nc(-c3ccc4ccccc4c3)cs2)cc1 | active: 17.8 µM
O=C(Nc1nc(OCC(F)(F)F)cnc1/C=C\c1ccccc1)c1ccsc1 | inconclusive: 44.7 µM [inhibitor, partial curve, poor fit]
Cc1cc(S(=O)(=O)c2cc3cc(F)cc(F)c3oc2=O)ccc1F | inconclusive: 3.55 µM [inhibitor, full curve, poor fit]
Cc1cc(Cl)c(OCCn2ccnc2)c(Br)c1 | inconclusive: 2.82 µM [inhibitor, full curve, poor fit]
S=c1[nH]nc(COc2ccccc2)n1/N=C/c1ccc(Br)s1 | inconclusive: 39.8 µM [inhibitor, partial curve, poor fit]
CCN(C(=O)c1c(-c2ccccc2)noc1C)c1ccccc1 | inconclusive: 126 µM [inhibitor, partial curve, poor fit]
CN(Cc1ccc(C(F)(F)F)cc1)C(=O)c1cc(C2CC2)nc2ccccc12 | inconclusive: 2.24 µM [inhibitor, full curve, poor fit]
COCc1noc([C@@H]2CN(C(=O)c3cc4ccccc4[nH]3)C[C@H]2C(N)=O)n1 | inactive
C=CCOc1ccc(Br)cc1/C=C(/C#N)C(=O)Nc1ccccc1C(F)(F)F | inconclusive: 6.31 µM [inhibitor, full curve, poor fit]
O=C(NCCCCc1ccccc1)c1ccccc1Br | inconclusive: 112 µM [inhibitor, single point]
Cc1ccc(-c2cc(-c3ccccc3)[nH]c(=S)c2C#N)cc1 | inactive
O=C(CSc1ncc(-c2ccc(F)cc2)n1Cc1ccco1)Nc1ccc2c(c1)OCO2 | inactive
COc1ccc(-c2cc(CNc3nc(NC(C)C)nc4cc(-c5ccccc5)sc34)on2)cc1 | active: 44.7 µM
CC(C)NC(=O)C[C@@H]1O[C@H](CNC(=O)c2cccc(F)c2)[C@@H](O)[C@H]1O | inconclusive: 17.8 µM [inhibitor, full curve]
CCC(C)(C)C(=O)Nc1cc([N+](=O)[O-])ccc1F | inactive
c1ccc(-c2nnc([C@H]3CCN(C4CCOCC4)C3)o2)cc1 | inactive
CCOC(=O)c1cnc(SCC(=O)Nc2cccc(Br)c2)nc1N | inactive
O=C(c1ccc(CC2CCN(C(=O)C3CCCO3)CC2)cc1)N1CCOCC1 (stereo not drawn) | inactive
CCN1CCC(N(Cc2cccs2)C(=O)Nc2cc(Cl)ccc2C(=O)OC)CC1 | inconclusive: 5.62 µM [inhibitor, partial curve, poor fit]
CC(C(=O)NCc1cc(F)cc(F)c1)C1CCOCC1 (stereo not drawn) | inactive
FC(F)(F)c1ccc(Cl)c(NC(=S)N/N=C/c2ccccc2Cl)c1 | inactive

In the list so far, these contain a thiophene ring, fused or not:
SMILES | Potency
O=C(Nc1nc(OCC(F)(F)F)cnc1/C=C\c1ccccc1)c1ccsc1 | inconclusive: 44.7 µM [inhibitor, partial curve, poor fit]
S=c1[nH]nc(COc2ccccc2)n1/N=C/c1ccc(Br)s1 | inconclusive: 39.8 µM [inhibitor, partial curve, poor fit]
COc1ccc(-c2cc(CNc3nc(NC(C)C)nc4cc(-c5ccccc5)sc34)on2)cc1 | active: 44.7 µM
CCN1CCC(N(Cc2cccs2)C(=O)Nc2cc(Cl)ccc2C(=O)OC)CC1 | inconclusive: 5.62 µM [inhibitor, partial curve, poor fit]

(list continues)

SMILES | Potency
Cn1cc(CC(=O)N2CCCc3ncc(C(=O)NCCc4ccccn4)cc32)c2ccccc21 | inconclusive: 100 µM [inhibitor, partial curve, poor fit]
COC1CN(c2ccc(C)cc2)C12CCN(C(=O)c1nccc3ccccc13)CC2 (stereo not drawn) | inconclusive: 56.2 µM [inhibitor, partial curve, poor fit]
Cc1cc(C)cc(NC2=CC(c3cccc(F)c3)N(c3cc(C)cc(C)c3)C2=O)c1 (stereo not drawn) | inconclusive: 79.4 µM [inhibitor, partial curve, poor fit]
CCCCOC(=O)c1c(C)oc2ccc(NS(=O)(=O)c3ccc4c5c(cccc35)C(=O)N4)cc12 | inconclusive: 39.8 µM [inhibitor, partial curve]
CCN(CC)S(=O)(=O)c1nnc(NC(=O)COc2ccc(Cl)cc2)s1 | inactive
CCN(CC)CCNC(=O)c1ccc2c(c1)sc1nc(-c3ccc(F)cc3)cn12 | inconclusive: 63.1 µM [inhibitor, partial curve, poor fit]
O=Cc1cccc2c1OCCO2 | active: 7.08 µM
CCCn1nc([N+](=O)[O-])c(C(C#N)c2nc3ccccc3o2)c(Cl)c1=O (stereo not drawn) | active: 39.8 µM
Cc1ccc(S(=O)(=O)Nc2nc3c(s2)C(=O)CC(C)(C)C3)cc1 | inconclusive: 50.1 µM [inhibitor, partial curve, poor fit]
CCCCCCCCCCOC(=O)Cn1c(COc2ccccc2OC)[n+](C)c2ccccc21 | inconclusive: 70.8 µM [inhibitor, single point]
Cc1cc(Cl)ccc1NC(=S)Nc1cccnc1 | inconclusive: 70.8 µM [inhibitor, partial curve, poor fit]
Cc1ccc(/C=N\NC(=O)CCc2n[nH]c(=O)[nH]c2=O)o1 | inactive
Cc1ccc2[nH]c(C(=O)N(Cc3ccc(C)o3)C3CC3)cc2c1 | inconclusive: 44.7 µM [inhibitor, partial curve, poor fit]
COC(=O)c1ccc(COC(=O)c2cc3c(s2)CCC3)o1 | active: 8.91 µM
COc1cc2c(O)c3c(c(-c4ccc5c(c4)OCO5)c2cc1OC)C(=O)OC3 | inconclusive: 100 µM [inhibitor, single point]
O=C1c2ccccc2CN1c1ccccc1 | inactive
COc1ccc(NC(=O)c2cc(C3CCCCN3C(=O)CCc3ccccc3)on2)c(C)c1 (stereo not drawn) | inconclusive: 44.7 µM [inhibitor, partial curve, poor fit]
Cc1ccc(C)c(-c2cc3ccccc3[nH]2)c1 | inconclusive: 31.6 µM [inhibitor, partial curve, poor fit]
CSc1nc(SCC(=O)NCc2ccco2)c2c3c(sc2n1)COC(C)(C)C3 | inconclusive: 25.1 µM [inhibitor, partial curve, poor fit]
Cc1ccc(C)n1-c1nnc(N2CCCC(C(=O)Nc3ccc(C(C)C)cc3)C2)s1 (stereo not drawn) | inactive and inconclusive: 100 nM [inhibitor, full curve, poor fit]
Cc1ccc(-n2c(COc3ccccc3)n[nH]c2=S)cc1 | inconclusive: 50.1 µM [inhibitor, partial curve, poor fit]
Clc1ccccc1CNCc1ccc2c(c1)OCO2 | inconclusive: 7.94 µM [inhibitor, full curve, poor fit]
CCOc1ccccc1Nc1cc2n(c(=O)n1)CCc1cc(OC)c(OC)cc1-2 | inconclusive: 31.6 µM [inhibitor, partial curve, poor fit]

SMILES | Potency
CCC1CCCCN1CCCNC(=O)c1cc2c(Cl)nc3ccccc3c2s1 (stereo not drawn) | inconclusive: 89.1 µM [inhibitor, single point]
CCc1nc(-c2c3n(c(=O)n(CC(=O)Nc4cccc(C#N)c4)c2=O)CCCCC3)no1 | inactive
CCOC(=O)CCc1c(C)nc(SCC(=O)O)c(C#N)c1C | inconclusive: 44.7 µM [inhibitor, partial curve, poor fit]
Cc1cc(C)n2c(NC3CCCC3)c(-c3cccnc3)nc2n1 | inconclusive: 35.5 µM [inhibitor, single point]
O=C(O)CN1C(=O)/C(=C\c2cccc(OCc3ccc(Cl)cc3)c2)SC1=S | inconclusive: 11.2 µM [inhibitor, full curve, poor fit]
Cc1cc(=O)oc2cc(OCC(=O)NCC3(N(C)C)CCCCCC3)ccc12 | inactive
COc1cc(C(=O)/C=C/c2cc(Br)c(O)c(OC)c2)ccc1OCC(=O)O | active: 10 µM
Cc1ccc(-n2nc3c(c2NC(=O)/C=C\c2ccc4c(c2)OCO4)CSC3)cc1 | inconclusive: 17.8 µM [inhibitor, full curve]
CC1(c2ccccc2)NC(=O)N(CC(=O)N2CCN(S(=O)(=O)c3cccc([N+](=O)[O-])c3)CC2)C1=O (stereo not drawn) | inconclusive: 112 µM [inhibitor, single point]
CCOC(=O)C[C@H]1c2cc(F)ccc2S(=O)(=O)N1c1cccc(OC)c1 | inconclusive: 70.8 µM [inhibitor, single point]
Cn1c(O)c(N=NC(=O)CNC(=O)c2ccccc2)c2ccccc21 | inactive
COc1ccc(OC)c(C2CCCN2C(=O)CSc2nnnn2C2CCCCC2)c1 (stereo not drawn) | inactive
CCOC(=O)C1=CC[C@@H](c2ccccc2)N(S(=O)(=O)c2ccc(C)cc2)[C@H]1C=C(C)C | inconclusive: 126 µM [inhibitor, single point]
CCCCN(Cc1ccccc1)c1ccc(NS(=O)(=O)c2ccc(C(C)=O)cc2)cc1C(=O)O | active: 4.47 µM
COc1ccc(C(=O)NCc2nnc(SCC(=O)N3CCCCCC3)o2)cc1OC | inactive
COc1ccc(-n2nnnc2SCC(=O)c2ccc(O)c(O)c2)cc1 | active: 4.47 µM
O=C(NC[C@H]1OC[C@@H](NC2CCCCC2)[C@@H]1O)c1cccs1 | inconclusive: 28.2 µM [inhibitor, full curve]
CC1CCN(CCCn2c(=S)[nH]c3c(sc4ccccc43)c2=O)CC1 | inconclusive: 39.8 µM [inhibitor, partial curve, poor fit]
O=C(OCC(=O)C12CC3CC(CC(C3)C1)C2)c1ccc(O)cc1O | inconclusive: 35.5 µM [inhibitor, partial curve, poor fit]
O=C(CSc1ccccc1)Nc1nnc(COc2ccc(Cl)cc2)s1 | inconclusive: 44.7 µM [inhibitor, partial curve, poor fit]
O=C(CCc1cccnc1)NCCC12CC3CC(CC(C3)C1)C2 | inactive
CC(C)(C)c1ccc(C(=O)N/N=C2\C3CN4CCN(C3)CC2(c2ccccc2)C4)cc1 | inactive
